Source: article doi:10.1101/2022.05.04.490592
Results are given in words; binding and its absence hold for the method and conditions named. Binding seen in cells or lysates may run through a third protein. Here binding means that the protein was enriched with, or labelled near, the bait; the list need not be complete.

The chains behind the UniProt entries cited, without tags or fusion partners.
UniProt Q9NP66: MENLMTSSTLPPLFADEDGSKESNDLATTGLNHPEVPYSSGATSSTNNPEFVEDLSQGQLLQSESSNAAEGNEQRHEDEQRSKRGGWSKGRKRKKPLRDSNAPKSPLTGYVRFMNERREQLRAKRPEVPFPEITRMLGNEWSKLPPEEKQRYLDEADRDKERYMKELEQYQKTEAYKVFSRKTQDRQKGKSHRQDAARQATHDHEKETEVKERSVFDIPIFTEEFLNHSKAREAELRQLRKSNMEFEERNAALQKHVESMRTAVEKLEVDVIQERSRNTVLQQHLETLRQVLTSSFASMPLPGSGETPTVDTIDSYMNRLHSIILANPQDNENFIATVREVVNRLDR
UniProt Q96BD5: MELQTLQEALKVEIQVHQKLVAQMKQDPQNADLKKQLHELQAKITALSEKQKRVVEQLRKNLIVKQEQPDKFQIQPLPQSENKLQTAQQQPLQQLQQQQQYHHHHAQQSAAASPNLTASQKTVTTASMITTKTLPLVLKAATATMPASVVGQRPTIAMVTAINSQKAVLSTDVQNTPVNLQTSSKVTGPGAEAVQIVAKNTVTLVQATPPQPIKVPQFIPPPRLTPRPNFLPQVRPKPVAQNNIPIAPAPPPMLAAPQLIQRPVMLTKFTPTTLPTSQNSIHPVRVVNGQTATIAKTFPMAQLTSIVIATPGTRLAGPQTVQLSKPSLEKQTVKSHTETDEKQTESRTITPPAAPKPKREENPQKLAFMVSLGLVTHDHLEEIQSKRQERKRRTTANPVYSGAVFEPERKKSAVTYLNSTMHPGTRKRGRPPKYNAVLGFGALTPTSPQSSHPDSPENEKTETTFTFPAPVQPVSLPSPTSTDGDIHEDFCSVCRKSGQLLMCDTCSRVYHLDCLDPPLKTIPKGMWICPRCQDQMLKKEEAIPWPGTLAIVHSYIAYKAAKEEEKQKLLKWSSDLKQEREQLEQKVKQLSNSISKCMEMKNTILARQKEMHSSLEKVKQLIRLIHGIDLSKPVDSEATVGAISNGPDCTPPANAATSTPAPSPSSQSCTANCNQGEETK
UniProt Q9UKL0: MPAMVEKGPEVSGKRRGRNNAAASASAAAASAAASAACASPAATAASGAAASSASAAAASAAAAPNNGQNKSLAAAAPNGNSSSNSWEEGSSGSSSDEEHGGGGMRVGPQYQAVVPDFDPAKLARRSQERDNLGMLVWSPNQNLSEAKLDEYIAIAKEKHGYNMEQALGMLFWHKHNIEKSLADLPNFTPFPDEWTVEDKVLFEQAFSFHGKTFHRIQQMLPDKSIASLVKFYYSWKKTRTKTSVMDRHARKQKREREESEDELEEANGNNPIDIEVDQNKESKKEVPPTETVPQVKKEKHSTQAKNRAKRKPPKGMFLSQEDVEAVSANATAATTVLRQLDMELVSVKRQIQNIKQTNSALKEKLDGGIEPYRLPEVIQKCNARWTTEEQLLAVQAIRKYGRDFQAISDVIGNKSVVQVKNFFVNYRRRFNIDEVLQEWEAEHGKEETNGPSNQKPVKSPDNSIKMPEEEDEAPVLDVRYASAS
UniProt Q7Z5J4: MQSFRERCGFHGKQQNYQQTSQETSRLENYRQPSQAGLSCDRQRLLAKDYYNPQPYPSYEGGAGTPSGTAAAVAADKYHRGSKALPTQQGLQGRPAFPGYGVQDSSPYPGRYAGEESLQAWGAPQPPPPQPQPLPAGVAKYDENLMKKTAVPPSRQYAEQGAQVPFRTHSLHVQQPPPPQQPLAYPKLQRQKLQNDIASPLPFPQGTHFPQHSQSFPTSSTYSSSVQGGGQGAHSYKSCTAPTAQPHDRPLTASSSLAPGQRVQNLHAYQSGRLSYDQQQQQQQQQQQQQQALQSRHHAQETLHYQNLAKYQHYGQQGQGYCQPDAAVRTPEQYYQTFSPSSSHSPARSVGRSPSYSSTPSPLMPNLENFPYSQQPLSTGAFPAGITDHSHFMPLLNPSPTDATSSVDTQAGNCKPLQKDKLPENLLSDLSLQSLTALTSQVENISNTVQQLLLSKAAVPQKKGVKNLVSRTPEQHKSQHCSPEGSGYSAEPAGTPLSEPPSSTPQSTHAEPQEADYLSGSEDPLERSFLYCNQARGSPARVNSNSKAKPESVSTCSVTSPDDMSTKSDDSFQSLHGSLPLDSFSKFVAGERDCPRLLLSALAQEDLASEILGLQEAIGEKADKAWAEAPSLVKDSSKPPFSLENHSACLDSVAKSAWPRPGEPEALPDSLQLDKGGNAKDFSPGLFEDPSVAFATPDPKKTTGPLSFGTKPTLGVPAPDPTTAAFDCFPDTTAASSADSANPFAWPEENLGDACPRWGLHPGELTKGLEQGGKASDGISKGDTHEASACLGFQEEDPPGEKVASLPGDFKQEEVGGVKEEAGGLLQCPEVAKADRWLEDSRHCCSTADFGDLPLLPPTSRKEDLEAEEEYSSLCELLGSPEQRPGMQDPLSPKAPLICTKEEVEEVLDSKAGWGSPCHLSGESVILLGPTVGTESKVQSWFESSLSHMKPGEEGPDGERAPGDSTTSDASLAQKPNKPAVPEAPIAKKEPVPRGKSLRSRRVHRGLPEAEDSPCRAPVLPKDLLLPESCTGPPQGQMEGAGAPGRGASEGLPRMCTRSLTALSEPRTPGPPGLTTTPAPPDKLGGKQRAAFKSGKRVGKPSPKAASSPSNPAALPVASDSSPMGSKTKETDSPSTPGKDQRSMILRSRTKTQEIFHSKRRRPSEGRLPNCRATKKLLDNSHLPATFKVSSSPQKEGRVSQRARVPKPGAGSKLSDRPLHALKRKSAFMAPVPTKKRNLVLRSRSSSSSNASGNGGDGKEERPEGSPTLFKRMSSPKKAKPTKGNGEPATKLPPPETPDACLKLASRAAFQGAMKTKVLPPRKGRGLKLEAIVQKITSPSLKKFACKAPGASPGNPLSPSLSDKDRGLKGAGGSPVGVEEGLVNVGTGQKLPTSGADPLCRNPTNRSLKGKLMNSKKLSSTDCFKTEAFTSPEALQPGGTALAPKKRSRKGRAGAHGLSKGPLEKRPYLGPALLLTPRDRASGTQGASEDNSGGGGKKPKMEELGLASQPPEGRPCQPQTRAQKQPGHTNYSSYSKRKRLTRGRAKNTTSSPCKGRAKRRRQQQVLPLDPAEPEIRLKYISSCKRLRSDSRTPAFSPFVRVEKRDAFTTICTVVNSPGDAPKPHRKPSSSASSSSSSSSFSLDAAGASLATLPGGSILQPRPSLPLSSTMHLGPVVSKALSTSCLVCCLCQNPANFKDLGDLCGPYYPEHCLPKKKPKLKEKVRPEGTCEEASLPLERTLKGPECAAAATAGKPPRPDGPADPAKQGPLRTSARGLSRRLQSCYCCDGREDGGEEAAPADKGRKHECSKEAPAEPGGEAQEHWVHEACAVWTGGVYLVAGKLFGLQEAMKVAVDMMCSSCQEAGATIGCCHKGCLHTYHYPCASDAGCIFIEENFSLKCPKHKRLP
UniProt Q9UGU0: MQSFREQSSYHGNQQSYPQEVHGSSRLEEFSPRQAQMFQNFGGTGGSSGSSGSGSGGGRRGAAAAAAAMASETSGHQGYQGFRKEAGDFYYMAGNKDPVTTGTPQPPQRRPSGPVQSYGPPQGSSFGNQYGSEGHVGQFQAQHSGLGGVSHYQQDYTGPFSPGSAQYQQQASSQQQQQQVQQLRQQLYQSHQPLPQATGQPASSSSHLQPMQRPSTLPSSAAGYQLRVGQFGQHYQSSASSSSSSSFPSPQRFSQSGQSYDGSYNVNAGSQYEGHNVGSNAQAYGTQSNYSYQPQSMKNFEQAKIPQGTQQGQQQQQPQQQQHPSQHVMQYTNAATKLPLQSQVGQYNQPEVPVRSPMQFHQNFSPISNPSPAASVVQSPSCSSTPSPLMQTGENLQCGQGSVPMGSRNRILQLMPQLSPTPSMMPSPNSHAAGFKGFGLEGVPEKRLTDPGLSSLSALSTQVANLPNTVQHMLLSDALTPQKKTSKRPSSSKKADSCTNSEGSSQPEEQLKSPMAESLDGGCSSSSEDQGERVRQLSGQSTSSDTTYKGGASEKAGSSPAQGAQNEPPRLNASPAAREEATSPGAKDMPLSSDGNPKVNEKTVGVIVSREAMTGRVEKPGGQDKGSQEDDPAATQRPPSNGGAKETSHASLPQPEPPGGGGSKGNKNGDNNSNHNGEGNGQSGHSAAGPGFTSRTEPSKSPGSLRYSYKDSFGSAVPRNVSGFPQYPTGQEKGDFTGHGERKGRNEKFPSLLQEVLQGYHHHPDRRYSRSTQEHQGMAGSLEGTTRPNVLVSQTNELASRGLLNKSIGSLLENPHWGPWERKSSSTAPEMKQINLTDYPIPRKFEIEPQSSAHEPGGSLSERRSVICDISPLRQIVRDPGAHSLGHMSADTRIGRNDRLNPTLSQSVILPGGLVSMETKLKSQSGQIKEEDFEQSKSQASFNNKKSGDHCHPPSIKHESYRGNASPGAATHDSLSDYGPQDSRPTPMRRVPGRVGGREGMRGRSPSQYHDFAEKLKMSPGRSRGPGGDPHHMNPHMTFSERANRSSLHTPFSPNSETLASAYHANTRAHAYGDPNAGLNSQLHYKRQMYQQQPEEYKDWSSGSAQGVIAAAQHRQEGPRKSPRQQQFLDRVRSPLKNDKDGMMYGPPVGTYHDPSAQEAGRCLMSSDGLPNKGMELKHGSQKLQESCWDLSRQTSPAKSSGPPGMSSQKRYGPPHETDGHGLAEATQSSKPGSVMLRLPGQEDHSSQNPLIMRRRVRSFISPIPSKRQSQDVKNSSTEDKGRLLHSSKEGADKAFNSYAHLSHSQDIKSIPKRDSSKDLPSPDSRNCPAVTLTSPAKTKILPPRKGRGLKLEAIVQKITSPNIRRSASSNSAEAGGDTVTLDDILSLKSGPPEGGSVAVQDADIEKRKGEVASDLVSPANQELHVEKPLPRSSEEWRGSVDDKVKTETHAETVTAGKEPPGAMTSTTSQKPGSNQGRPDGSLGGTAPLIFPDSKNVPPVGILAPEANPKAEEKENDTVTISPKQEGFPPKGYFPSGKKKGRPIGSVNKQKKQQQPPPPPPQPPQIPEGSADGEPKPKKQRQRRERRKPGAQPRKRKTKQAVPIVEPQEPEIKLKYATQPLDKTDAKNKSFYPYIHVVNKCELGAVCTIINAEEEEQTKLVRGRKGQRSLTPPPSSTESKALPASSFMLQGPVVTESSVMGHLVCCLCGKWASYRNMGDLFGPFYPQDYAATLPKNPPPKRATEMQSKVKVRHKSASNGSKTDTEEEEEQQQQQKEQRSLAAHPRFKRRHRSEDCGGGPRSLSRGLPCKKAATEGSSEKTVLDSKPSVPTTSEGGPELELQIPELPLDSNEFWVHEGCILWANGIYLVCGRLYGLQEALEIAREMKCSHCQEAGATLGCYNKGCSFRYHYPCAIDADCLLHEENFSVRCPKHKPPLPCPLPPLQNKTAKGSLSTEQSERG

Target: GFP-HMG20A (N-terminally GFP-tagged High Mobility Box 20A), stably expressed in HeLa Kyoto cells (human) (UniProt Q9NP66)
Assay: affinity purification with mass spectrometry

In the case of PHF21A (from UniProt Q96BD5 1-680), the binding is reported as “binds”.

For RCOR1 (from UniProt Q9UKL0 1-485), the binding was “binds”.

RCOR3 (from UniProt Q9P2K3 1-495) was tested, and the binding was “binds”.

For “Retinoic Acid Induced 1 (RAI1) (from UniProt Q7Z5J4 1-1906)”, the binding was “binds”.

“Transcription Factor 20 (TCF20) (from UniProt Q9UGU0 1-1960)” was tested, and the binding was “binds”.

B1: zinc finger protein ZNF512B (protein, UniProt Q96KM6 1-892)
chain: MTDPFCVGGRRLPGSSKSGPGKDGSRKEVRLPMLHDPPKMGMPVVRGGQTVPGQAPLCFDPGSPASDKTEGKKKGRPKAENQALRDIPLSLMNDWKDEFKAHSRVKCPNSGCWLEFPSIYGLKYHYQRCQGGAISDRLAFPCPFCEAAFTSKTQLEKHRIWNHMDRPLPASKPGPISRPVTISRPVGVSKPIGVSKPVTIGKPVGVSKPIGISKPVSVGRPMPVTKAIPVTRPVPVTKPVTVSRPMPVTKAMPVTKPITVTKSVPVTKPVPVTKPITVTKLVTVTKPVPVTKPVTVSRPIVVSKPVTVSRPIAISRHTPPCKMVLLTRSENKAPRATGRNSGKKRAADSLDTCPIPPKQARPENGEYGPSSMGQSSAFQLSADTSSGSLSPGSRPSGGMEALKAAGPASPPEEDPERTKHRRKQKTPKKFTGEQPSISGTFGLKGLVKAEDKARVHRSKKQEGPGPEDARKKVPAAPITVSKEAPAPVAHPAPGGPEEQWQRAIHERGEAVCPTCNVVTRKTLVGLKKHMEVCQKLQDALKCQHCRKQFKSKAGLNYHTMAEHSAKPSDAEASEGGEQEERERLRKVLKQMGRLRCPQEGCGAAFSSLMGYQYHQRRCGKPPCEVDSPSFPCTHCGKTYRSKAGHDYHVRSEHTAPPPEEPTDKSPEAEDPLGVERTPSGRVRRTSAQVAVFHLQEIAEDELARDWTKRRMKDDLVPETARLNYTRPGLPTLNPQLLEAWKNEVKEKGHVNCPNDCCEAIYSSVSGLKAHLASCSKGAHLAGKYRCLLCPKEFSSESGVKYHILKTHAENWFRTSADPPPKHRSQDSLVPKKEKKKNLAGGKKRGRKPKERTPEEPVAKLPPRRDDWPPGCRDKGARGSTGRKVGVSKAPEK
In the case of B1, the binding is reported as “binds”.

B2: BEND3 (protein, UniProt Q5T5X7 1-828)
chain: MNSTEFTEDVEEVLKSITVKVETEAEDAALDCSVNSRTSEKHSVDSVLTALQDSSKRKQLVSDGLLDSVPGVKRRRLIPEALLAGMRNRENSSPCQGNGEQAGRGRSLGNVWPGEEEPCNDATTPSYKKPLYGISHKIMEKKNPPSGDLLNVYELFEKANASNSPSSLRLLNEPQKRDCGSTGAGTDNDPNIYFLIQKMFYMLNTLTSNMSQLHSKVDLLSLEVSRIKKQVSPTEMVAKFQPPPEYQLTAAELKQIVDQSLSGGDLACRLLVQLFPELFSDVDFSRGCSACGFAAKRKLESLHLQLIRNYVEVYYPSVKDTAVWQAECLPQLNDFFSRFWAQREMEDSQPSGQVASFFEAEQVDPGHFLDNKDQEEALSLDRSSTIASDHVVDTQDLTEFLDEASSPGEFAVFLLHRLFPELFDHRKLGEQYSCYGDGGKQELDPQRLQIIRNYTEIYFPDMQEEEAWLQQCAQRINDELEGLGLDAGSEGDPPRDDCYDSSSLPDDISVVKVEDSFEGERPGRRSKKIWLVPIDFDKLEIPQPDFEVPGADCLLSKEQLRSIYESSLSIGNFASRLLVHLFPELFTHENLRKQYNCSGSLGKKQLDPSRIKLIRHYVQLLYPRAKNDRVWTLEFVGKLDERCRRRDTEQRRSYQQQRKVHVPGPECRDLTSYAINPERFREEFEGPPLPPERSSKDFCKIPLDELVVPSPDFPVPSPYLLSDKEVREIVQQSLSVGNFAARLLVRLFPELFTAENLRLQYNHSGACNKKQLDPTRLRLIRHYVEAVYPVEKMEEVWHYECIPSIDERCRRPNRKKCDILKKAKKVEK
With B2 the binding was “binds”.

B3: L3MBTL3 (protein, UniProt Q96JM7 1-780)
chain: MTESASSTSGQEFDVFSVMDWKDGVGTLPGSDLKFRVNEFGALEVITDENEMENVKKATATTTWMVPTAQEAPTSPPSSRPVFPPAYWTSPPGCPTVFSEKTGMPFRLKDPVKVEGLQFCENCCQYGNVDECLSGGNYCSQNCARHIKDKDQKEERDVEEDNEEEDPKCSRKKKPKLSLKADTKEDGEERDDEMENKQDVRILRGSQRARRKRRGDSAVLKQGLPPKGKKAWCWASYLEEEKAVAVPAKLFKEHQSFPYNKNGFKVGMKLEGVDPEHQSVYCVLTVAEVCGYRIKLHFDGYSDCYDFWVNADALDIHPVGWCEKTGHKLHPPKGYKEEEFNWQTYLKTCKAQAAPKSLFENQNITVIPSGFRVGMKLEAVDKKNPSFICVATVTDMVDNRFLVHFDNWDESYDYWCEASSPHIHPVGWCKEHRRTLITPPGYPNVKHFSWDKYLEETNSLPAPARAFKVKPPHGFQKKMKLEVVDKRNPMFIRVATVADTDDHRVKVHFDGWNNCYDYWIDADSPDIHPVGWCSKTGHPLQPPLSPLELMEASEHGGCSTPGCKGIGHFKRARHLGPHSAANCPYSEINLNKDRIFPDRLSGEMPPASPSFPRNKRTDANESSSSPEIRDQHADDVKEDFEERTESEMRTSHEARGAREEPTVQQAQRRSAVFLSFKSPIPCLPLRWEQQSKLLPTVAGIPASKVSKWSTDEVSEFIQSLPGCEEHGKVFKDEQIDGEAFLLMTQTDIVKIMSIKLGPALKIFNSILMFKAAEKNSHNEL
For B3, the binding was “binds”.

B4: HMG20B (protein, UniProt Q9P0W2 1-317)
chain: MSHGPKQPGAAAAPAGGKAPGQHGGFVVTVKQERGEGPRAGEKGSHEEEPVKKRGWPKGKKRKKILPNGPKAPVTGYVRFLNERREQIRTRHPDLPFPEITKMLGAEWSKLQPTEKQRYLDEAEREKQQYMKELRAYQQSEAYKMCTEKIQEKKIKKEDSSSGLMNTLLNGHKGGDCDGFSTFDVPIFTEEFLDQNKAREAELRRLRKMNVAFEEQNAVLQRHTQSMSSARERLEQELALEERRTLALQQQLQAVRQALTASFASLPVPGTGETPTLGTLDFYMARLHGAIERDPAQHEKLIVRIKEILAQVASEHL
For B4, the binding was “binds”.

B5: GSE1 (protein, UniProt Q14687 1-1217)
chain: MKGMSHEPKSPSLGMLSTATRTTATVNPLTPSPLNGALVPSGSPATSSALSAQAAPSSSFAAALRKLAKQAEEPRGSSLSSESSPVSSPATNHSSPASTPKRVPMGPIIVPPGGHSVPSTPPVVTIAPTKTVNGVWRSESRQDAGSRSSSGGRERLIVEPPLPQEKAGGPAIPSHLLSTPYPFGLSPSSVVQDSRFPPLNLQRPVHHVVPPSTVTEDYLRSFRPYHTTDDLRMSSLPPLGLDPATAAAYYHPSYLAPHPFPHPAFRMDDSYCLSALRSPFYPIPTPGSLPPLHPSAMHLHLSGVRYPPELSHSSLAALHSERMSGLSAERLQMDEELRREREREREREREREADREREKEREREREKEREQEKEREREKERERELERQREQRAREKELLAAKALEPSFLPVAELHGLRGHATEERGKPSEQLTPTRAEKLKDAGLQAPKPVQHPLHPVPTPHHTVPSLISNHGIFSLPSSSAATALLIQRTNEEEKWLARQRRLRQEKEDRQSQVSEFRQQVLEQHLDMGRPPVPAEAEHRPESTTRPGPNRHEPGGRDPPQHFGGPPPLISPKPQLHAAPTALWNPVSLMDNTLETRRAESHSLHSHPAAFEPSRQAAVPLVKVERVFCPEKAEEGPRKREPAPLDKYQPPPPPPREGGSLEHQPFLPGPGPFLAELEKSTQTILGQQRASLPQAATFGELSGPLKPGSPYRPPVPRAPDPAYIYDEFLQQRRRLVSKLDLEERRRREAQEKGYYYDLDDSYDESDEEEVRAHLRCVAEQPPLKLDTSSEKLEFLQLFGLTTQQQKEELVAQKRRKRRRMLRERSPSPPTIQSKRQTPSPRLALSTRYSPDEMNNSPNFEEKKKFLTIFNLTHISAEKRKDKERLVEMLRAMKQKALSAAVADSLTNSPRDSPAVSLSEPATQQASLDVEKPVGVAASLSDIPKAAEPGKLEQVRPQELSRVQELAPASGEKARLSEAPGGKKSLSMLHYIRGAAPKDIPVPLSHSTNGKSKPWEPFVAEEFAHQFHESVLQSTQKALQKHKGSVAVLSAEQNHKVDTSVHYNIPELQSSSRAPPPQHNGQQEPPTARKGPPTQELDRDSEEEEEEDDEDGEDEEEVPKRKWQGIEAVFEAYQEHIEEQNLERQVLQTQCRRLEARHYSLSLTAEQLSHSVAELRSQKQKMVSERERLQAELDHLRKCLALPAMHWPRGYLKGYPR
In the case of B5, the binding is reported as “binds”.
